Experimental data: the supplement of paper PMC3334620
In all, about 33,000 sequences were measured (“E-score (-0.5 to 0.5)”: median about -0.0059, highest 2% from about 0.26 on). This is one part of the list.

What follows are sequences tested against T1, Cin5 (UniProt P40917) (assay: PBM E-score (8-mer binding enrichment) (E-score (-0.5 to 0.5)); higher = stronger / more preferred TF binding). Settings: protein concentration: 100 nM; construct: GST-full length.
T1 sequence: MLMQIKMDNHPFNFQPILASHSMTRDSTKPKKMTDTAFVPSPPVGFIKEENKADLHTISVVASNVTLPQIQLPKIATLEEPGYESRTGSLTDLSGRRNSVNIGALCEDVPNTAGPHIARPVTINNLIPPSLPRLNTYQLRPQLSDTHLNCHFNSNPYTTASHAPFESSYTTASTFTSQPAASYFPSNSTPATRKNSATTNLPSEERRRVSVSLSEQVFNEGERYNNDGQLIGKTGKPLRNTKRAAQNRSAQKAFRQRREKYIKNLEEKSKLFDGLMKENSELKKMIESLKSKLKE
Outline: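 Masliner-normalised scans of fluorescent anti-GST signal were the basis for scoring. That signal came from GST-tagged yeast transcription factors applied at about 100-200 nM to double-stranded universal all-10-mer Agilent arrays on fresh or once-stripped slides. Each ungapped eight-base word, pooled with its reverse complement, received an E-score from the Universal PBM Analysis Suite.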

Sequence | PBM E-score
CGCTCATC | -0.0643
GCGGAAGA | 0.0917
CTTGGTCA | 0.0155
GCACGCTA | -0.127
AGGGCTAC | -0.235
ATGGGTCC | 0.0118
AGCAGCTC | -0.0828
CAGATCGC | -0.023
AGCGGGAG | -0.135
GGGTCACC | -0.297
ATATCCCC | 0.0837
CGGTCACG | -0.125
GCCGGCTA | -0.142
AGCAAACC | 0.186
ACGGTCCC | -0.338
CTGACGAA | 0.185
AGAGTCGA | -0.00566
CCCCACCA | 0.0733
ATGGGATC | 0.0284
GACGCTAA | -0.147
GCACTGCA | -0.0484
ATCTAGTC | 0.0253

Some of the entries above, reformatted.
Sequence	PBM E-score
GCGGAAGA	0.0917
CTTGGTCA	0.0155
GCACGCTA	-0.127
AGGGCTAC	-0.235
ATGGGTCC	0.0118
AGCAGCTC	-0.0828

The list continues:

Sequence | PBM E-score
AAACTTAC | 0.0915
AAAACTGT | 0.138
CGTTATGA | -0.00703
AGCTAAAC | -0.0522
CGTCCTCC | -0.139
ACGCGAAA | 0.203
CTCGATCA | 0.0224
AGTTGATA | 0.148
AGTCACTC | 0.0223
CTGAACAG | -0.0256
GACTCACA | -0.0473
CTGGAACA | 0.061
GTCCCGCA | -0.202
GCGCTGCA | 0.0806
CCCGCTGC | -0.096
CGCGCTGC | 0.0167
GTCTTATA | 0.0235
ACAGGGCA | 0.0341
CACCTGTC | -0.0719
AGCACTCC | -0.0214
GGTATTCA | 0.105
CAGATAAG | -0.0973

Sequence | PBM E-score
CGCCCCCG | -0.329
ACTTACGC | 0.0171
TGGATGAA | 0.138
GACTCTGA | -0.0473
GTCGGGGA | 0.00829
AAGGCCCC | -0.164
GCAGGCGC | -0.0896
ATTCGAAC | 0.157
GCGCACGC | -0.12
ACAATCAC | 0.0412
AGGGAGCC | -0.352
CTGGCTAA | -0.0403
CAATGGTA | 0.101
ACGAACAA | 0.0319
AATTAGGG | -0.153
ACTGTGTC | -0.0416
GAAGAATA | 0.0158
GCCACACA | 0.0511
CACGCACA | 0.105
AGTGTAAC | -0.0776
CGGGGACG | -0.112
CGGAGTAG | 0.0285

Some values from the results shown:
In PBM E-score, GCACGCTA has -0.127
In PBM E-score, CGCTCATC has -0.0643
In PBM E-score, CAGATAAG has -0.0973

(next part)

Sequence | PBM E-score
CCGAGGAG | -0.213
AGATAGCT | -0.138
ACGAGGCG | 0.0373
GACAATTA | 0.108
ATACTCGG | 0.126
AAGAATAC | 0.143
AGTGTTTC | 0.0887
TGCTCACA | 0.0149
AGTTGAAC | -0.0135
ATGCTGTG | -0.052
ATAACGTA | 0.313
CACGAACA | 0.141
ATGTTTGA | 0.00735
TCCTGGCA | -0.114
CATGTATA | 0.101
CGCCGGGA | -0.128
GCGCTCCC | -0.099
GCGAATCA | 0.139
ATGAGTGG | -0.0453
CCAAGGCC | -0.21
GCTTAGAC | -0.0654
CAATAAAG | 0.0519

Sequence | PBM E-score
ACGCGCAT | 0.00584
CCCCTGGA | -0.235
TAAGAGCA | 0.0709
TCCGTGAA | -0.139
CTACTGGA | -0.00915
AGCGAACA | 0.162
ACGATCGC | 0.19
AGGGACAA | -0.0892
ACCCCCTA | -0.47
GTAAAGGA | 0.00639
CACTTGAG | 0.0203
AAATGATT | 0.294
AGATATCC | 0.167
ATGTCAGA | 0.114
AGGTCTCG | -0.217
GTTTCGAA | 0.0691
AGCCCCCA | -0.432
TCCTTGCA | -0.145
GTACGAAC | 0.0851
GCAGAACA | 0.154
GACCAGAA | 0.0134
ACCAACCG | 0.0498
